In publication PMC7553298:
These are yes or no findings as the source states them, for the method shown. Binding seen in cells or lysates may run through a third protein. Some results given as binding are weak or reduced against the parent protein; the word gives no strength.

By UniProt entry, the sequences of proteins in these tests, tags left out. Where a name states a change or a piece, a line headed by the entry shows the natural chain unless it says otherwise.
UniProt Q9NTQ9: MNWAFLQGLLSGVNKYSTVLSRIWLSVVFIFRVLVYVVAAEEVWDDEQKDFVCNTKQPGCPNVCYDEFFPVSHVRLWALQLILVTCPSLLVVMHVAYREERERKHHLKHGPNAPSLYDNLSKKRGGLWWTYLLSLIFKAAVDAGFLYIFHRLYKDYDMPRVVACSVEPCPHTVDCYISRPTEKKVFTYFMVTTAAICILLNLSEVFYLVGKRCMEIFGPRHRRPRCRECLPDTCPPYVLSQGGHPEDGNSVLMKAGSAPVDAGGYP
UniProt P17302: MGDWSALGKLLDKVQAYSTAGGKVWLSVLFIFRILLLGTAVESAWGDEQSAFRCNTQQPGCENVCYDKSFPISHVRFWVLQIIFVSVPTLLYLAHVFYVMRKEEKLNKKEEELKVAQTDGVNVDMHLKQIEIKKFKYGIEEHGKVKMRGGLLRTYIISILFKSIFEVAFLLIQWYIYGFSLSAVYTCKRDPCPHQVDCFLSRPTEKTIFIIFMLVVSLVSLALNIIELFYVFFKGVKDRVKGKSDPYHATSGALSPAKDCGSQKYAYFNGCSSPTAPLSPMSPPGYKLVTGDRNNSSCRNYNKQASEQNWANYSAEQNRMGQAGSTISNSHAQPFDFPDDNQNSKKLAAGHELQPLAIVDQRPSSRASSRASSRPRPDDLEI

Legend:
[1] = target: HA-tagged GJB4-WT (human) (UniProt Q9NTQ9); test: co-IP; Cos7 cells co-transfected with HA- and FLAG-tagged constructs; lysate in modified RIPA buffer (1% NP40, 150 mM NaCl, 0.05% deoxycholate); immunoprecipitation with anti-HA antibody and protein A-Sepharose at 4°C, washes with 500 mM NaCl; western blot (n = 3)
[2] = target: HA-tagged GJA1 (gap junction protein A1, wild type) (human) (UniProt P17302); test: as above

| Substance | binding [1] | binding [2] |
| --- | --- | --- |
| FLAG-tagged GJB4-E204A (from UniProt Q9NTQ9 1-266) | binds | binds |
| FLAG-tagged GJB4-WT (gap junction protein beta 4, wild type) (from UniProt Q9NTQ9 1-266) | binds | binds |
